Article PMC6316800
Results are given in words; binding and its absence hold for the method and conditions named. In cells and extracts the contact can be indirect. Here binding means that the protein was enriched with, or labelled near, the bait; the list need not be complete.

Amino acid sequences for entries named in this document (tags omitted).
UniProt P03496: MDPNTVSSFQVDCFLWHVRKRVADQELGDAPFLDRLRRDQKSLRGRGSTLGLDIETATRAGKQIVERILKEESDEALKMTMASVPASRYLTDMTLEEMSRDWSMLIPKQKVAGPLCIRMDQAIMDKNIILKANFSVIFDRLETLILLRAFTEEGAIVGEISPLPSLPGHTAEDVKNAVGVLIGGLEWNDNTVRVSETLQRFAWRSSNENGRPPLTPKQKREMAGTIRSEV

Columns and labels:
[1] = target: Influenza A virus non-structural protein 1 (NS1), strain A/Puerto Rico/8/1934(H1N1) (Influenza A virus A/Puerto Rico/8/1934(H1N1)) (UniProt P03496); experiment: affinity purification with mass spectrometry
[2] = target: Influenza A virus non-structural protein 1 (NS1), strain A/Puerto Rico/8/1934(H1N1) (Influenza A virus A/Puerto Rico/8/1934(H1N1)), P03496; experiment: affinity purification with mass spectrometry; settings: remark: other sources report otherwise

Binder	binding [1]	binding [2]
Nucleolar protein 16 (protein, UniProt Q9Y3C1 1-178) MPKAKGKTRRQKFGYSVNRKRLNRNARRKAAPRIECSHIRHAWDHAKSVRQNLAEMGLAVDPNRAVPLRKRKVKAMEVDIEERPKELVRKPYVLNDLEAEASLPEKKGNTLSRDLIDYVRYMVENHGEDYKAMARDEKNYYQDTPKQIRSKINVYKRFYPAEWQDFLDSLQKRKMEVE	binds	
Nucleolar protein 11 (protein, UniProt Q9H8H0 1-719) MAALEEEFTLSSVVLSAGPEGLLGVEQSDKTDQFLVTDSGRTVILYKVSDQKPLGSWSVKQGQIITCPAVCNFQTGEYVVVHDNKVLRIWNNEDVNLDKVFKATLSAEVYRILSVQGTEPLVLFKEGAVRGLEALLADPQQKIETVISDEEVIKWTKFFVVFRHPVLIFITEKHGNYFAYVQMFNSRILTKYTLLLGQDENSVIKSFTASVDRKFISLMSLSSDGCIYETLIPIRPADPEKNQSLVKSLLLKAVVSGNARNGVALTALDQDHVAVLGSPLAASKECLSVWNIKFQTLQTSKELPQGTSGQLWYYGEHLFMLHGKSLTVIPYKCEVSSLAGALGKLKHSQDPGTHVVSHFVNWETPQGCGLGFQNSEQSRRILRRRKIEVSLQPEVPPSKQLLSTIMKDSEKHIEVEVRKFLALKQTPDFHTVIGDTVTGLLERCKAEPSFYPRNCLMQLIQTHVLSYSLCPDLMEIALKKKDVQLLQLCLQQFPDIPESVTCACLKIFLSIGDDSLQETDVNMESVFDYSINSVHDEKMEEQTEILQNGFNPEEDKCNNCDQELNKKPQDETKESTSCPVVQKRAALLNAILHSAYSETFLLPHLKDIPAQHITLFLKYLYFLYLKCSENATMTLPGIHPPTLNQIMDWICLLLDANFTVVVMMPEAKRLLINLYKLVKSQISVYSELNKIEVSFRELQKLNQEKNNRGLYSIEVLELF	binds	
Nucleolar protein 58 (protein, UniProt Q9Y2X3 1-529) MLVLFETSVGYAIFKVLNEKKLQEVDSLWKEFETPEKANKIVKLKHFEKFQDTAEALAAFTALMEGKINKQLKKVLKKIVKEAHEPLAVADAKLGGVIKEKLNLSCIHSPVVNELMRGIRSQMDGLIPGVEPREMAAMCLGLAHSLSRYRLKFSADKVDTMIVQAISLLDDLDKELNNYIMRCREWYGWHFPELGKIISDNLTYCKCLQKVGDRKNYASAKLSELLPEEVEAEVKAAAEISMGTEVSEEDICNILHLCTQVIEISEYRTQLYEYLQNRMMAIAPNVTVMVGELVGARLIAHAGSLLNLAKHAASTVQILGAEKALFRALKSRRDTPKYGLIYHASLVGQTSPKHKGKISRMLAAKTVLAIRYDAFGEDSSSAMGVENRAKLEARLRTLEDRGIRKISGTGKALAKTEKYEHKSEVKTYDPSGDSTLPTCSKKRKIEQVDKEDEITEKKAKKAKIKVKVEEEEEEKVAEEEETSVKKKKKRGKKKHIKEEPLSEEEPCTSTAIASPEKKKKKKKKRENED	binds	
Nucleolar protein 6 (protein, UniProt Q9H6R4 1-1146) MGPAPAGEQLRGATGEPEVMEPALEGTGKEGKKASSRKRTLAEPPAKGLLQPVKLSRAELYKEPTNEELNRLRETEILFHSSLLRLQVEELLKEVRLSEKKKDRIDAFLREVNQRVVRVPSVPETELTDQAWLPAGVRVPLHQVPYAVKGCFRFLPPAQVTVVGSYLLGTCIRPDINVDVALTMPREILQDKDGLNQRYFRKRALYLAHLAHHLAQDPLFGSVCFSYTNGCHLKPSLLLRPRGKDERLVTVRLHPCPPPDFFRPCRLLPTKNNVRSAWYRGQSPAGDGSPEPPTPRYNTWVLQDTVLESHLQLLSTILSSAQGLKDGVALLKVWLRQRELDKGQGGFTGFLVSMLVVFLVSTRKIHTTMSGYQVLRSVLQFLATTDLTVNGISLCLSSDPSLPALADFHQAFSVVFLDSSGHLNLCADVTASTYHQVQHEARLSMMLLDSRADDGFHLLLMTPKPMIRAFDHVLHLRPLSRLQAACHRLKLWPELQDNGGDYVSAALGPLTTLLEQGLGARLNLLAHSRPPVPEWDISQDPPKHKDSGTLTLGLLLRPEGLTSVLELGPEADQPEAAKFRQFWGSRSELRRFQDGAIREAVVWEAASMSQKRLIPHQVVTHLLALHADIPETCVHYVGGPLDALIQGLKETSSTGEEALVAAVRCYDDLSRLLWGLEGLPLTVSAVQGAHPVLRYTEVFPPTPVRPAFSFYETLRERSSLLPRLDKPCPAYVEPMTVVCHLEGSGQWPQDAEAVQRVRAAFQLRLAELLTQQHGLQCRATATHTDVLKDGFVFRIRVAYQREPQILKEVQSPEGMISLRDTAASLRLERDTRQLPLLTSALHGLQQQHPAFSGVARLAKRWVRAQLLGEGFADESLDLVAAALFLHPEPFTPPSSPQVGFLRFLFLVSTFDWKNNPLFVNLNNELTVEEQVEIRSGFLAARAQLPVMVIVTPQDRKNSVWTQDGPSAQILQQLVVLAAEALPMLEKQLMDPRGPGDIRTVFRPPLDIYDVLIRLSPRHIPRHRQAVDSPAASFCRGLLSQPGPSSLMPVLGYDPPQLYLTQLREAFGDLALFFYDQHGGEVIGVLWKPTSFQPQPFKASSTKGRMVMSRGGELVMVPNVEAILEDFAVLGEGLVQTVEARSERWTV	binds	
Putative ribosomal RNA methyltransferase NOP2 (protein, UniProt P46087 1-812) MGRKLDPTKEKRGPGRKARKQKGAETELVRFLPAVSDENSKRLSSRARKRAAKRRLGSVEAPKTNKSPEAKPLPGKLPKGISAGAVQTAGKKGPQSLFNAPRGKKRPAPGSDEEEEEEDSEEDGMVNHGDLWGSEDDADTVDDYGADSNSEDEEEGEALLPIERAARKQKAREAAAGIQWSEEETEDEEEEKEVTPESGPPKVEEADGGLQINVDEEPFVLPPAGEMEQDAQAPDLQRVHKRIQDIVGILRDFGAQREEGRSRSEYLNRLKKDLAIYYSYGDFLLGKLMDLFPLSELVEFLEANEVPRPVTLRTNTLKTRRRDLAQALINRGVNLDPLGKWSKTGLVVYDSSVPIGATPEYLAGHYMLQGASSMLPVMALAPQEHERILDMCCAPGGKTSYMAQLMKNTGVILANDANAERLKSVVGNLHRLGVTNTIISHYDGRQFPKVVGGFDRVLLDAPCSGTGVISKDPAVKTNKDEKDILRCAHLQKELLLSAIDSVNATSKTGGYLVYCTCSITVEENEWVVDYALKKRNVRLVPTGLDFGQEGFTRFRERRFHPSLRSTRRFYPHTHNMDGFFIAKFKKFSNSIPQSQTGNSETATPTNVDLPQVIPKSENSSQPAKKAKGAAKTKQQLQKQQHPKKASFQKLNGISKGADSELSTVPSVTKTQASSSFQDSSQPAGKAEGIREPKVTGKLKQRSPKLQSSKKVAFLRQNAPPKGTDTQTPAVLSPSKTQATLKPKDHHQPLGRAKGVEKQQLPEQPFEKAAFQKQNDTPKGPQPPTVSPIRSSRPPPAKRKKSQSRGNSQLLLS	binds	
p21-activated protein kinase-interacting protein 1 (protein, UniProt Q9NWT1 1-392) MELVAGCYEQVLFGFAVHPEPEACGDHEQWTLVADFTHHAHTASLSAVAVNSRFVVTGSKDETIHIYDMKKKIEHGALVHHSGTITCLKFYGNRHLISGAEDGLICIWDAKKWECLKSIKAHKGQVTFLSIHPSGKLALSVGTDKTLRTWNLVEGRSAFIKNIKQNAHIVEWSPRGEQYVVIIQNKIDIYQLDTASISGTITNEKRISSVKFLSESVLAVAGDEEVIRFFDCDSLVCLCEFKAHENRVKDMFSFEIPEHHVIVSASSDGFIKMWKLKQDKKVPPSLLCEINTNARLTCLGVWLDKVADMKESLPPAAEPSPVSKEQSKIGKKEPGDTVHKEEKRSKPNTKKRGLTGDSKKATKESGLISTKKRKMVEMLEKKRKKKKIKTMQ	binds	
Interferon-induced, double-stranded RNA-activated protein kinase, P19525 1-551 (protein) MAGDLSAGFFMEELNTYRQKQGVVLKYQELPNSGPPHDRRFTFQVIIDGREFPEGEGRSKKEAKNAAAKLAVEILNKEKKAVSPLLLTTTNSSEGLSMGNYIGLINRIAQKKRLTVNYEQCASGVHGPEGFHYKCKMGQKEYSIGTGSTKQEAKQLAAKLAYLQILSEETSVKSDYLSSGSFATTCESQSNSLVTSTLASESSSEGDFSADTSEINSNSDSLNSSSLLMNGLRNNQRKAKRSLAPRFDLPDMKETKYTVDKRFGMDFKEIELIGSGGFGQVFKAKHRIDGKTYVIKRVKYNNEKAEREVKALAKLDHVNIVHYNGCWDGFDYDPETSDDSLESSDYDPENSKNSSRSKTKCLFIQMEFCDKGTLEQWIEKRRGEKLDKVLALELFEQITKGVDYIHSKKLIHRDLKPSNIFLVDTKQVKIGDFGLVTSLKNDGKRTRSKGTLRYMSPEQISSQDYGKEVDLYALGLILAELLHVCDTAFETSKFFTDLRDGIISDIFDKKEKTLLQKLLSKKPEDRPNTSEILRTLTVWKKSPEKNERHTC		binds
Protein C16orf88 (protein, UniProt Q1ED39 1-458) MITKTHKVDLGLPEKKKKKKVVKEPETRYSVLNNDDYFADVSPLRATSPSKSVAHGQAPEMPLVKKKKKKKKGVSTLCEEHVEPETTLPARRTEKSPSLRKQVFGHLEFLSGEKKNKKSPLAMSHASGVKTSPDPRQGEEETRVGKKLKKHKKEKKGAQDPTAFSVQDPWFCEAREARDVGDTCSVGKKDEEQAALGQKRKRKSPREHNGKVKKKKKIHQEGDALPGHSKPSRSMESSPRKGSKKKPVKVEAPEYIPISDDPKASAKKKMKSKKKVEQPVIEEPALKRKKKKKRKESGVAGDPWKEETDTDLEVVLEKKGNMDEAHIDQVRRKALQEEIDRESGKTEASETRKWTGTQFGQWDTAGFENEDQKLKFLRLMGGFKNLSPSFSRPASTIARPNMALGKKAADSLQQNLQRDYDRAMSWKYSRGAGLGFSTAPNKIFYIDRNASKSVKLED	binds	
Nucleolar protein 7 (protein, UniProt Q9UMY1 1-257) MVQLRPRASRAPASAEAMVDEGQLASEEEEAEHGLLLGQPSSGAAAEPLEEDEEGDDEFDDEAPEELTFASAQAEAREEERRVRETVRRDKTLLKEKRKRREELFIEQKKRKLLPDTILEKLTTASQTNIKKSPGKVKEVNLQKKNEDCEKGNDSKKVKVQKVQSVSQNKSYLAVRLKDQDLRDSRQQAAQAFIHNSLYGPGTNRTTVNKFLSLANKRLPVKRAAVQFLNNAWGIQKKQNAKRFKRRWMVRKMKTKK	binds	
